Patent EP4821935A1, “MACROCYCLIC COMPOUND CONTAINING AMIDE SUBSTITUTION” (dated 2026)
The structures given here were assigned with low confidence; some may be wrong.

Tests used:
AsPc-1 cells = assay: Assay for inhibitory activity for AsPc-1 cell proliferation (CCK-8); settings: read-out: Inhibitory activity IC50 for AsPc-1 cell proliferation, 72 h incubation, CCK-8, 5000 nM-0.31 nM
Method: AsPc-1 cells in a well-growing state were collected into a centrifuge tube, adjusted to a cell density of 3 × 10^4 cells/mL, and inoculated onto a 96-well plate (100 µL/well). The compounds were added using a nanoliter pipettor such that the final concentrations of the compounds were 5000 nM-0.31 nM (the addition was performed in duplicate). Meanwhile, a control was set. After 72 h of incubation in the cell incubator, the assay reagent CCK-8 (manufacturer: Dojindo Laboratories; 10 µL/well) was added. After 3 h of incubation in the cell incubator, the absorbance values were measured at 450 nm on a PerkinElmer Envision microplate reader. A four-parameter analysis was performed, a dose-response curve was fitted, and IC50 was calculated. A represents that IC50 < 100 nM; B represents that 100 nM ≤ IC50 < 500 nM.

Capan-1 cells = assay: Assay for inhibitory activity for Capan-1 cell proliferation (CCK-8); settings: read-out: Inhibitory activity IC50 for Capan-1 cell proliferation, 5 days incubation, CCK-8, 20000 nM-9.1 nM
Method: Capan-1 cells in a well-growing state were collected into a centrifuge tube, adjusted to a cell density of 1.5 × 10^4 cells/mL, and inoculated onto a 96-well plate (100 µL/well). The compounds were added using a nanoliter pipettor such that the final concentrations of the compounds were 20000 nM-9.1 nM (the addition was performed in duplicate). Meanwhile, a control was set. After 5 days of incubation in the cell incubator, the assay reagent CCK-8 (manufacturer: Dojindo Laboratories, Beijing; 10 µL/well) was added. After 4 h of incubation in the cell incubator, the absorbance values were measured at 450 nm on a PerkinElmer Envision microplate reader. A four-parameter analysis was performed, a dose-response curve was fitted, and IC50 was calculated. A represents that IC50 < 100 nM; B represents that 100 nM ≤ IC50 < 500 nM. Table 1. Results of cell proliferation inhibition assay for compounds

## CCn1c(-c2cc(N3CCN(C)CC3)cnc2[C@H](C)OC)c2c3cc(ccc31)-c1csc(n1)C[C@H](NC(=O)C1CC=C(C)CC1)C(=O)N1CCC[C@H](N1)C(=O)OCC(C)(C)C2 (some centres unmarked)
AsPc-1 cells
  IC50: < 100 nM
Capan-1 cells
  IC50: < 100 nM
